Results: patent publication US20230303681A1
Results are given in words; binding and its absence hold for the method and conditions named. Some entries that bind do so weakly or less than the wild type. Blank lines part the entries; values can stand above or below the binder they belong to.

Amino acid sequences for entries named in this document (tags omitted). A change or cut given only in a name is not applied to a line headed by its entry.
UniProt Q9NUM4: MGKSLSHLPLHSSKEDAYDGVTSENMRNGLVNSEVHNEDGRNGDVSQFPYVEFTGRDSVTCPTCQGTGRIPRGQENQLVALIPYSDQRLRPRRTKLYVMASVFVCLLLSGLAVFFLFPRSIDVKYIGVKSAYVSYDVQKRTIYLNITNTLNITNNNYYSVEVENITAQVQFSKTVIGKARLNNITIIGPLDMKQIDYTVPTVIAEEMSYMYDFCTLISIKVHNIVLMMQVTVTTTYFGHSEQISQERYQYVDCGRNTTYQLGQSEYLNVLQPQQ
UniProt Q80X71: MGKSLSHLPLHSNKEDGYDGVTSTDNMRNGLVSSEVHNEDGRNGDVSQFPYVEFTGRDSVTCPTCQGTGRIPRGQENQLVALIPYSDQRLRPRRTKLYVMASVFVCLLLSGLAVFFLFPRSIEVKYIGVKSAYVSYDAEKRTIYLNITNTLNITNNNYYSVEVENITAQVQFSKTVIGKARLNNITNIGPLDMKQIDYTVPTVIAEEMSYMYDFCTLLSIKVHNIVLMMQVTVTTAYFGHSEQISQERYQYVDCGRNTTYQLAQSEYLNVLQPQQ

What was measured:
human TMEM106B (human) [1] = target: human TMEM106B (human) (UniProt Q9NUM4); assay: FACS, A549 and HEK+huTMEM, maximum signal
[2] = target: GST-fusion human TMEM106B truncated (human); assay: ELISA, supernatant
human TMEM106B (human) [3] = target: human TMEM106B (human) (UniProt Q9NUM4); assay: as told for bin 3 and bin 4 antibodies
mouse TMEM106B (mouse) [4] = target: mouse TMEM106B (mouse) (UniProt Q80X71); assay: as told for bin 3 and bin 4 antibodies
[5] = target: cynomolgus (cyno) TMEM106B (cynomolgus); assay: as told for bin 3 and bin 4 antibodies
human TMEM106B (human) [6] = target: human TMEM106B (human) (UniProt Q9NUM4); assay: as told for community 1 antibodies
mouse TMEM106B (mouse) [7] = target: mouse TMEM106B (mouse) (UniProt Q80X71); assay: as told for community 1 antibodies
[8] = target: cynomolgus (cyno) TMEM106B (cynomolgus); assay: as told for community 1 antibodies

binding (human TMEM106B (human) [3]): binds | binding (mouse TMEM106B (mouse) [4]): binds | binding [5]: binds | binding (human TMEM106B (human) [1]): binds | binding [2]: binds
B2: anti-TMEM106B antibody TM-7 (antibody, V domains shown)
VH: EVQLQQSGPVLVKPGPPVKISCKASGFTFTDYYIHWVKLSHGKSLEWIGLVYPYNGDTDYNQKFKGKATLTVDTSSSTAYMELNSLTSEDSAVYYCARTYYANSPDYWGQGTTVTVSS
VL: DIVMTQSPSSLSVSAGEKVTMSCKSSQSLLNSGNQRNYLAWYQQKPGQPPKLLIYGASTRESGVPDRFTGSGSGTDFTLTISNVQAEDLAVYYCQNDHSYPLTFGAGTKLELK

binding (human TMEM106B (human) [1]): binds
B3: anti-TMEM106B antibody TM-30 (antibody, V domains shown)
VH: QVQLQQSGPELVKPGASVKLSCKASDNTFTNYDVNWVRQRPGQGLEWIGWIYPRDGTTIYNEKFKGRATLTVDTSSSTAYMELHSLTSEDSAVFFCARTLPQAMDYWGQGTSVTVSS
VL: DVLMTQSPLSLPVSLGDQVSISCRSSQTIVHRNGNTYLEWYLQKPGQSPKLLIYKVSNRFSGVPDRFSGSGSGTDFTLKISRVEAEDLGVYYCFQGSHLPWTFGGGTKLEIK

More lines, now with the values behind:

B1: anti-TMEM106B antibody TM-3 (antibody, V domains shown)
VH: QVTLKESGPGIVQPSQTLSLTCSFSGFSLNTLGRGVGWIRQPSGKGLEWLAKIWWNDDKFYYPALKSRLTISKDTSKNQIFLKIANVDTADSATYYCARIAGGTGAAYWGQGTTLTVSS
VL: DIVMTQAAFSNPVTLGTSASISCRSSKSLLHSNGITYLYWYLQKPGQSPQLLISQMSSLASGVPDRFSSGGSGTDFTLRISRVEAEDVGVFYCAQNLELPWTFGGGTKLELK
binding (human TMEM106B (human) [1]): binds | binding [2]: binds

B4: anti-TMEM106B antibody TM-26 (antibody, V domains shown)
VH: QVQLQQSGAELIRPGTSVKVSCKASGYAFTNYLIEWVKKRPGQGLEWIGVINPGSGITNYNEKFKGKATLTADKSSSTAYMQLSSLTSEDSAVYFCARSDFITTVVADYWGQGTTVTVSS
VL: DIVVTQTPLSLPVSFGDQVSISCRSSQSLTNYYGNTYLSWYLHKPGQSPQLLIYGISNRFSGVPDRFSGSGSGTDFTLKISTIKPEDLGMYYCLQGTHQPRTFGGGTKLEIK
binding (human TMEM106B (human) [6]): binds | binding (mouse TMEM106B (mouse) [7]): binds | binding [8]: binds | binding [2]: binds
